# Test results from the supplement of paper PMC10735217.
# Counter-ions that a name gives are not always drawn. This is one part of the list. This data set is noisy: repeats of one test often differ as much as different tests do.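 The human kidney-derived cells carry a stably integrated construct of eight TEAD-binding elements driving luciferase, read by luminescence in a drug-repurposing library screen. A compound counts as a hit when its signal is more than five robust Z scores above the plate mean.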
# Test system: HEK293A TEAD-LUC reporter
# Test: TEAD-luciferase reporter activity (YAP activation), robust Z score vs plate; higher = stronger YAP/TEAD activation
# Conditions: 24 h
SMILES,TEAD-luciferase reporter activity (compound concentration: 200 nM),TEAD-luciferase reporter activity (compound concentration: 10 uM),TEAD-luciferase reporter activity (compound concentration: 2 uM)
CCCCCn1cc(-c2nc(CN(CCOC)C(C)C)cs2)c2ccccc21 [PTI-2 (hydrochloride)],inactive: -1.16,active: 7.11,–
CCCCCn1cc(-c2nc(CN(CCOC)C(C)C)cs2)c2ccccc21,–,–,inactive: -1.01
CCOC(=O)C1(c2ccccc2)CCN(CCc2ccc(NC(=O)C(N)CC(C)C)cc2)CC1 (stereo not given),inactive: -0.208,inactive: 1.75,inactive: -0.421
Clc1cc(N2C[C@@H]3CN[C@@H]3C2)cnc1Cl,inactive: -0.796,inactive: 4.56,inactive: -1.07
O=C1CN=C(c2ccccc2F)c2cc(Cl)ccc2N1CC(O)CO (stereo not given),inactive: 0.764,inactive: 1.52,inactive: -1.74
NC(=O)c1ncn2c1CN=C(c1ccccc1Cl)c1ccccc1-2,inactive: -0.656,inactive: -0.222,inactive: -0.726
Cc1cc(C2=NOC(c3cc(Cl)cc(Cl)c3)(C(F)(F)F)C2)ccc1C(=O)NCC(=O)NCC(F)(F)F (stereo not given) [Fluralaner],inactive: 3.14,inactive: 0.19,inactive: -0.242
Oc1ccc(Cl)cc1Cc1cc(Cl)ccc1O,inactive: -1.21,inactive: 1.53,inactive: -0.315
c1ccc2c(c1)CCN1CCNCC21 (stereo not given),inactive: 0.351,inactive: 0.145,inactive: -1.25
CC[C@@H](C(=O)O)[C@@H]1O[C@@H]([C@@H](C)[C@H](O)[C@H](C)C(=O)[C@H](CC)[C@H]2O[C@]3(C=C[C@@H](O)[C@]4(CC[C@@](C)([C@H]5CC[C@](O)(CC)[C@H](C)O5)O4)O3)[C@H](C)C[C@@H]2C)[C@@H](C)C[C@@H]1C [Narasin],inactive: -0.436,inactive: -0.232,active: 17.1
CC(C)N(CCc1c[nH]c2ccccc12)C(C)C,inactive: 2.11,active: 10.5,inactive: 0.511
CC(=O)O[C@H]1CC[C@H]2[C@@H]3CC=C4C[C@@H](O)CC[C@]4(C)[C@H]3CC[C@]12C,inactive: -1.28,inactive: 1.11,inactive: 0.793
OCCCCO [Tetramethylene glycol],inactive: 0.16,inactive: -2.01,inactive: -0.818
O=S1(N2CC2)=NP(N2CC2)(N2CC2)=NP(N2CC2)(N2CC2)=N1 (stereo not given),inactive: -1.21,inactive: -0.878,inactive: 1.45
Cc1ccc2c(c1)[C@]13CCCC[C@@H]1[C@H](C2)N(C)CC3 [Dimemorfan phosphate],inactive: 3.46,inactive: -0.97,inactive: 0.0242
CC(C)NC(C)Cc1ccc(O)cn1 (stereo not given) [Prisotinol],inactive: -1.3,inactive: 1.98,inactive: -0.121
O=C(O)CCc1csc(NC(=O)c2cc3c(n(CC4CCCCC4)c2=O)CCCCCC3)n1,inactive: -3.08,inactive: 2.8,inactive: 0.229
c1ccc2c(c1)Sc1ccccc1N2CC1CN2CCC1CC2 (stereo not given) [Mequitazine],inactive: -1.31,inactive: 0.924,inactive: -1.42

SMILES,TEAD-luciferase reporter activity (compound concentration: 200 nM),TEAD-luciferase reporter activity (compound concentration: 10 uM),TEAD-luciferase reporter activity (compound concentration: 2 uM)
CNC1=Nc2ccc(Cl)cc2C(c2ccccc2)=[N+]([O-])C1 [Chlordiazepoxide hydrochloride],–,–,inactive: -0.635
CNC1=Nc2ccc(Cl)cc2C(c2ccccc2)=[N+]([O-])C1,inactive: -0.878,inactive: 0.565,–
c1cnc2c(c1)O[C@@H]1CCN3CC[C@]1(C2)C3 [Dianicline],inactive: -0.683,inactive: 0.595,inactive: -1.63
O=C(O)CCC(CP(=O)(O)O)C(=O)O (stereo not given),inactive: 1.18,inactive: 0.684,inactive: -1.99
COc1cccc([C@@]2(O)C[C@H](O)CC[C@@H]2CN(C)C)c1,inactive: 0.137,inactive: 1.8,inactive: 0.17
CCCCN(CCCC)CCc1ccc(O)c(O)c1,inactive: -1.06,inactive: 0.0712,inactive: -2.66
CC(CCc1ccccc1)NC(C)C(O)c1ccc(O)cc1 (stereo not given) [nylidrin hydrochoride],inactive: -0.122,inactive: 3.17,inactive: 4.8
Oc1cccc(C2CNCCO2)c1 (stereo not given),inactive: -0.691,inactive: 0.55,inactive: -0.158
NC(=O)[C@H](CC1CC1)NC(=O)c1cnc(N2CC(F)(F)C2)c(OCC2CC2)n1,active: 7.86,inactive: -1.64,inactive: -0.962
CC(=O)O[C@H]1C[C@H](O[C@H]2[C@@H](O)C[C@H](O[C@H]3[C@@H](O)C[C@H](O[C@H]4CC[C@@]5(C)[C@H](CC[C@@H]6[C@@H]5CC[C@]5(C)[C@@H](C7=CC(=O)OC7)[C@@H](O)C[C@]65O)C4)O[C@@H]3C)O[C@@H]2C)O[C@H](C)[C@H]1O[C@@H]1O[C@H](CO)[C@@H](O)[C@H](O)[C@H]1O,inactive: -0.282,active: 11.7,inactive: -0.0851
C[C@@H](NC(=O)[C@@H](N)Cc1ccc(O)cc1)C(=O)NCC(=O)N(C)[C@@H](Cc1ccccc1)C(=O)N[C@H](CO)CCS(C)=O (stereo not given in full),inactive: 1.21,inactive: -1.45,inactive: -0.831
NCCCP(=O)(O)CC1CCCCC1,inactive: -0.778,inactive: -0.264,–
NC(=O)OC[C@H](O)c1ccccc1Cl [Carisbamate],inactive: 0.564,inactive: 0.393,inactive: -0.767
CC(N)Cc1ccc(C(F)(F)F)cc1 (stereo not given),inactive: -1.1,active: 5.03,inactive: 1.1
Cc1c(Cl)cccc1S(=O)(=O)Nc1nc(CC(=O)N2CCN(C)CC2)cs1,inactive: 1.15,inactive: 0.197,–
Clc1ccc(C23CNCC2C3)cc1Cl (stereo not given),inactive: -1.43,inactive: -0.42,inactive: -1.64
CCCCNC(=O)OCC(C)(CCC)COC(N)=O (stereo not given),inactive: -0.304,inactive: 1.31,inactive: -1.05
COc1ccccc1N1CCN(CCC(Oc2ccc(C(=O)c3cn(CCCC(=O)O)c4ccccc34)cc2)c2ccc(C)cc2)CC1 (stereo not given),inactive: -1.46,inactive: -0.326,inactive: -0.97

# Rewritten as tab-separated lines: part of the list above.
SMILES	TEAD-luciferase reporter activity (compound concentration: 200 nM)	TEAD-luciferase reporter activity (compound concentration: 10 uM)	TEAD-luciferase reporter activity (compound concentration: 2 uM)
CC[C@@H](C(=O)O)[C@@H]1O[C@@H]([C@@H](C)[C@H](O)[C@H](C)C(=O)[C@H](CC)[C@H]2O[C@]3(C=C[C@@H](O)[C@]4(CC[C@@](C)([C@H]5CC[C@](O)(CC)[C@H](C)O5)O4)O3)[C@H](C)C[C@@H]2C)[C@@H](C)C[C@@H]1C [Narasin]	inactive: -0.436	inactive: -0.232	active: 17.1
CC(C)N(CCc1c[nH]c2ccccc12)C(C)C	inactive: 2.11	active: 10.5	inactive: 0.511
CC(=O)O[C@H]1CC[C@H]2[C@@H]3CC=C4C[C@@H](O)CC[C@]4(C)[C@H]3CC[C@]12C	inactive: -1.28	inactive: 1.11	inactive: 0.793
